Source: PMC10799895
These are yes or no findings as the source states them, for the method shown. For part of these data: Binding seen in cells or lysates may run through a third protein. Some results given as binding are weak or reduced against the parent protein; the word gives no strength. For part of these data: Where a sequence is shown, tags or fusion partners need not be part of it.

What was measured:
ATG14-HA = ATG14-HA (UniProt Q6ZNE5); assay: co-IP
[1] = molecular target: strep(2x)-flag-hATG14 (human) (UniProt Q6ZNE5)
M-Flag (SARS-CoV-2) = M-Flag (SARS-CoV-2) (UniProt P0DTC5); assay: co-IP

B1: STX18-HA (protein, UniProt Q9P2W9 1-335)
chain: MAVDITLLFRASVKTVKTRNKALGVAVGGGVDGSRDELFRRSPRPKGDFSSRAREVISHIGKLRDFLLEHRKDYINAYSHTMSEYGRMTDTERDQIDQDAQIFMRTCSEAIQQLRTEAHKEIHSQQVKEHRTAVLDFIEDYLKRVCKLYSEQRAIRVKRVVDKKRLSKLEPEPNTKTRESTSSEKVSQSPSKDSEENPATEERPEKILAETQPELGTWGDGKGEDELSPEEIQMFEQENQRLIGEMNSLFDEVRQIEGRVVEISRLQEIFTEKVLQQEAEIDSIHQLVVGATENIKEGNEDIREAIKNNAGFRVWILFFLVMCSFSLLFLDWYDS
ATG14-HA
  binding: binds

B2: STX18-Flag (protein, UniProt Q9P2W9 1-335)
chain: B1 chain
[1]
  binding: binds

B3: endogenous STX18 (protein, UniProt Q9P2W9 1-335)
chain: B1 chain
M-Flag (SARS-CoV-2)
  binding: binds
